PubChem BioAssay AID504808 | Drosophila RNAi Screening Center, 2011

Assay: 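Fly genes required to hold E2F transcription in check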 (primary screen)
Cells: Drosophila S2 cells
Reagent: long dsRNA against Drosophila genes
Read-out: 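Firefly luciferase driven by E2F sites, normalised to Renilla luciferase on the same minimal promoter, measured by plate reader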
Scale: E2F firefly: higher = more E2F reporter activity; Renilla normaliser: higher = more normaliser reporter signal
Call rule: 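Called active if the normalised E2F reporter went up by over 50%; the cutoff is arbitrary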
The screen tested about 21,000 reagents; this is an unselected part of those with a known target gene and a result. Over the whole deposit, 18 (0.084%) were called active. 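Raw counts without plate normalisation, one of two replicates; the ratio scores behind the calls were not deposited.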 The numbers tell different reagents against one gene apart. Names joined by + are all predicted targets of the reagent. The record does not give: the amount of reagent, the time to read-out.

With CG7920, what was measured?
E2F firefly, rep 1: 1813; Renilla normaliser, rep 1: 860; outcome: inactive

With CG3635, what was measured?
E2F firefly, rep 1: 1.02e5; Renilla normaliser, rep 1: 4779; outcome: inactive

What is on record for CG14204?
E2F firefly, rep 1: 1.19e5; Renilla normaliser, rep 1: 7760; outcome: inactive

What is on record for flap #1?
E2F firefly, rep 1: 1.20e5; Renilla normaliser, rep 1: 4680; outcome: inactive

How did the screen score flap #2?
E2F firefly, rep 1: 92652; Renilla normaliser, rep 1: 3498; outcome: inactive

How did the screen score CG14837?
E2F firefly, rep 1: 1.04e5; Renilla normaliser, rep 1: 3721; outcome: inactive

What is on record for CG12017?
E2F firefly, rep 1: 1.21e5; Renilla normaliser, rep 1: 4699; outcome: inactive

With rad50, what does the deposit list?
E2F firefly, rep 1: 76201; Renilla normaliser, rep 1: 3253; outcome: inactive

For iav, what does the deposit list?
E2F firefly, rep 1: 94312; Renilla normaliser, rep 1: 5059; outcome: inactive

For Coa8, how do the results read?
E2F firefly, rep 1: 1.16e5; Renilla normaliser, rep 1: 5702; outcome: inactive

What is on record for CG10598?
E2F firefly, rep 1: 2.14e5; Renilla normaliser, rep 1: 5890; outcome: inactive

With BEAF-32 + CG42254 (retired record), how do the results read?
E2F firefly, rep 1: 1.15e5; Renilla normaliser, rep 1: 4174; outcome: inactive

Which result is listed for CG43386?
E2F firefly, rep 1: 1.31e5; Renilla normaliser, rep 1: 6443; outcome: inactive

What is on record for CG5608?
E2F firefly, rep 1: 80412; Renilla normaliser, rep 1: 3192; outcome: inactive

How did the screen score Tti1?
E2F firefly, rep 1: 1.50e5; Renilla normaliser, rep 1: 7230; outcome: inactive

For Jhbp11, what does the deposit list?
E2F firefly, rep 1: 1.17e5; Renilla normaliser, rep 1: 6153; outcome: inactive

Which result is listed for mRpS35?
E2F firefly, rep 1: 1.02e5; Renilla normaliser, rep 1: 4230; outcome: inactive

For CG8135 + BBIP1 #1, what was measured?
E2F firefly, rep 1: 77612; Renilla normaliser, rep 1: 3989; outcome: inactive

For CG8135 + BBIP1 #2, what does the deposit list?
E2F firefly, rep 1: 1.41e5; Renilla normaliser, rep 1: 5654; outcome: inactive
